# Test results as given in article PMC6364008.
# Protein sequences, listed by entry. Tags and fused reporters are not part of them.
# UniProt Q9UBN7: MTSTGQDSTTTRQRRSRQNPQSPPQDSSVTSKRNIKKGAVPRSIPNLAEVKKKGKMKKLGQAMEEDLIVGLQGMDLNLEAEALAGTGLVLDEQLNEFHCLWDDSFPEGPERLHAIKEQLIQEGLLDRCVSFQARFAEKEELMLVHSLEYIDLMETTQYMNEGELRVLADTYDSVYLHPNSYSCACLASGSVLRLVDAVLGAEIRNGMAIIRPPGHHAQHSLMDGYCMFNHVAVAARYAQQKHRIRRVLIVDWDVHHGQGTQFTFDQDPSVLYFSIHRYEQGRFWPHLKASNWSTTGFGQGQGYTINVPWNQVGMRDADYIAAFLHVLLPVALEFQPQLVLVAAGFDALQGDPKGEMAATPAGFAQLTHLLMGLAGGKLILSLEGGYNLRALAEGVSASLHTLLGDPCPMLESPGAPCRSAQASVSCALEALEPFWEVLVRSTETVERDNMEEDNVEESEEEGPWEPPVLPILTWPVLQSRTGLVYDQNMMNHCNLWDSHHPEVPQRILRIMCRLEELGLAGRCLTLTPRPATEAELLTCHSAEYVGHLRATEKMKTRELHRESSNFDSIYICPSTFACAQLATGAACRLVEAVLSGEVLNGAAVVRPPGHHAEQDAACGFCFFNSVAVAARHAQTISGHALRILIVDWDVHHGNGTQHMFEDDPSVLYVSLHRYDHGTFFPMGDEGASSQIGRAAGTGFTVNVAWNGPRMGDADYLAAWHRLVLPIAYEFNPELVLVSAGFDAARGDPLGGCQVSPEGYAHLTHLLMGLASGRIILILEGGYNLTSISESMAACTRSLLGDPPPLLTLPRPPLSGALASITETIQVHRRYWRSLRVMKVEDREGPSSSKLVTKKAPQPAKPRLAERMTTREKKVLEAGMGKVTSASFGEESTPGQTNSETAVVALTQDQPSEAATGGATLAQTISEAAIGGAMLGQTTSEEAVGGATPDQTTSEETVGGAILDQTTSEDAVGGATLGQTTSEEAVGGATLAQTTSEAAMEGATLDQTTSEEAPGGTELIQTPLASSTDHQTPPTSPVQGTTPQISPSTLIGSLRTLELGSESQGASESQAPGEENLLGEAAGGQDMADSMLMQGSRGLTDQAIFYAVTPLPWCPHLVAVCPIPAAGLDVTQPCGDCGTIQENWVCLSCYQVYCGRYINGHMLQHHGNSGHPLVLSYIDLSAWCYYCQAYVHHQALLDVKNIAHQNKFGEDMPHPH
# UniProt P15682: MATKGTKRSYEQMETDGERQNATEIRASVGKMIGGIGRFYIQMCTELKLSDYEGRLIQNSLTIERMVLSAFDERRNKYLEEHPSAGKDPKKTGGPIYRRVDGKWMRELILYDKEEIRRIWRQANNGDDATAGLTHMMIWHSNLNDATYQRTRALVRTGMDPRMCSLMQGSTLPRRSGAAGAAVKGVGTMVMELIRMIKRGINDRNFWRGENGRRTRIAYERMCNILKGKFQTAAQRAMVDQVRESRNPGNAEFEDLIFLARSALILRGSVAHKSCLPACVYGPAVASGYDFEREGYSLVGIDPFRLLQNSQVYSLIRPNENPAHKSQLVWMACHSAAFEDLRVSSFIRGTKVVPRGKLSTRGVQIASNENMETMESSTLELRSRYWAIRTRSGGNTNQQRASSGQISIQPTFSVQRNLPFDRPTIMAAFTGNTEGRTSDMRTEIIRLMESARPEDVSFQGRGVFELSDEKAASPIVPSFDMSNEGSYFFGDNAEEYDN
# No constants are given. Whether binding was seen depends on the method and setting. In cells and extracts the contact can be indirect. Some binding calls cover weakened binding; strength is not graded here.
# Molecular target: Flag-HDAC6 (histone deacetylase 6), expressed in 293T cells (human) (UniProt Q9UBN7)
# Test: co-IP
substance,measurement,value
"NP (nucleoprotein of influenza A virus strain WSN), expressed in 293T cells (from UniProt P15682 1-498)",binding,binds
